Measured values taken from the supplement of paper PMC7661543.
Differences between knockout arms are mostly noise.

Tested on: HCC-38
Test: relative cell number vs DMSO control (72 h) (% of DMSO); higher = less growth inhibition (more cells)
Experimental: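 QMAP-Seq: a pool of 5 breast cancer cell lines (ZR-75-1, SKBR3, HCC-38, MDA-MB-231, BT-20), each carrying 12 doxycycline-inducible Cas9 sgRNA perturbations (11 knockouts plus non-targeting sgNT), was treated with compounds for 72 h at four 10-fold doses (10 nM-10 uM or 1 nM-1 uM range). Barcodes were amplified and sequenced, and cell number was interpolated from 293T spike-in standard curves. The result is expressed as % of the median of DMSO wells. Two biological replicates.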

Nc1ccccc1NC(=O)c1ccc(CNC(=O)OCc2cccnc2)cc1 [Entinostat]
Conditions	relative cell number
sgRNA knockout: sgATF3, 10 nM	98.7
sgRNA knockout: sgATF3, 100 nM	102
sgRNA knockout: sgATF3, 1000 nM	63.4
sgRNA knockout: sgATF3, 10000 nM	36.1
sgRNA knockout: sgATF4, 10 nM	99.405
sgRNA knockout: sgATF4, 100 nM	106
sgRNA knockout: sgATF4, 1000 nM	66.3
sgRNA knockout: sgATF4, 10000 nM	34.2
sgRNA knockout: sgATF6, 10 nM	82.3
sgRNA knockout: sgATF6, 100 nM	119
sgRNA knockout: sgATF6, 1000 nM	57.9
sgRNA knockout: sgATF6, 10000 nM	30.3
sgRNA knockout: sgATG7, 10 nM	103.98
sgRNA knockout: sgATG7, 100 nM	106
sgRNA knockout: sgATG7, 1000 nM	61.8
sgRNA knockout: sgATG7, 10000 nM	30.6
sgRNA knockout: sgERN1, 10 nM	98.8
sgRNA knockout: sgERN1, 100 nM	104
sgRNA knockout: sgERN1, 1000 nM	54.9
sgRNA knockout: sgERN1, 10000 nM	34.8
sgRNA knockout: sgHSF1, 10 nM	98.9
sgRNA knockout: sgHSF1, 100 nM	123
sgRNA knockout: sgHSF1, 1000 nM	59.8
sgRNA knockout: sgHSF1, 10000 nM	35.6
sgRNA knockout: sgHSF2, 10 nM	94.6
sgRNA knockout: sgHSF2, 100 nM	113
sgRNA knockout: sgHSF2, 1000 nM	60.1
sgRNA knockout: sgHSF2, 10000 nM	38.9
sgRNA knockout: sgKEAP1, 10 nM	99.4
sgRNA knockout: sgKEAP1, 100 nM	122
sgRNA knockout: sgKEAP1, 1000 nM	57.9
sgRNA knockout: sgKEAP1, 10000 nM	33.9
sgRNA knockout: sgNFE2L2, 10 nM	100.1
sgRNA knockout: sgNFE2L2, 100 nM	101
sgRNA knockout: sgNFE2L2, 1000 nM	67.7
sgRNA knockout: sgNFE2L2, 10000 nM	32.6
sgRNA knockout: sgSLC35F2, 10 nM	102
sgRNA knockout: sgSLC35F2, 100 nM	105
sgRNA knockout: sgSLC35F2, 1000 nM	67.5
sgRNA knockout: sgSLC35F2, 10000 nM	33.7
sgRNA knockout: sgXBP1, 10 nM	110
sgRNA knockout: sgXBP1, 100 nM	104
sgRNA knockout: sgXBP1, 1000 nM	69.4
sgRNA knockout: sgXBP1, 10000 nM	34.7

O=C(NOCC(O)CO)c1cc(Br)c(F)c(F)c1Nc1ccc(I)cc1F (configuration not stated)
Conditions	relative cell number
sgRNA knockout: sgATF3, 10 nM	99.5
sgRNA knockout: sgATF3, 100 nM	84.5
sgRNA knockout: sgATF3, 1000 nM	88.7
sgRNA knockout: sgATF3, 10000 nM	85.8
sgRNA knockout: sgATF4, 10 nM	91
sgRNA knockout: sgATF4, 100 nM	80.1
sgRNA knockout: sgATF4, 1000 nM	76.2
sgRNA knockout: sgATF4, 10000 nM	89.4
sgRNA knockout: sgATF6, 10 nM	110
sgRNA knockout: sgATF6, 100 nM	93.2
sgRNA knockout: sgATF6, 1000 nM	88.1
sgRNA knockout: sgATF6, 10000 nM	93.8
sgRNA knockout: sgATG7, 10 nM	93.2
sgRNA knockout: sgATG7, 100 nM	81.5
sgRNA knockout: sgATG7, 1000 nM	83.1
sgRNA knockout: sgATG7, 10000 nM	89.8
sgRNA knockout: sgERN1, 10 nM	105
sgRNA knockout: sgERN1, 100 nM	85.6
sgRNA knockout: sgERN1, 1000 nM	84.1
sgRNA knockout: sgERN1, 10000 nM	91.3
sgRNA knockout: sgHSF1, 10 nM	116
sgRNA knockout: sgHSF1, 100 nM	97.8
sgRNA knockout: sgHSF1, 1000 nM	92.9
sgRNA knockout: sgHSF1, 10000 nM	90.7
sgRNA knockout: sgHSF2, 10 nM	106
sgRNA knockout: sgHSF2, 100 nM	87.3
sgRNA knockout: sgHSF2, 1000 nM	82.3
sgRNA knockout: sgHSF2, 10000 nM	93.2
sgRNA knockout: sgKEAP1, 10 nM	121
sgRNA knockout: sgKEAP1, 100 nM	99.7
sgRNA knockout: sgKEAP1, 1000 nM	91.6
sgRNA knockout: sgKEAP1, 10000 nM	98.6
sgRNA knockout: sgNFE2L2, 10 nM	93.2
sgRNA knockout: sgNFE2L2, 100 nM	75.5
sgRNA knockout: sgNFE2L2, 1000 nM	75.6
sgRNA knockout: sgNFE2L2, 10000 nM	85.7
sgRNA knockout: sgSLC35F2, 10 nM	94.6
sgRNA knockout: sgSLC35F2, 100 nM	72.6
sgRNA knockout: sgSLC35F2, 1000 nM	72.4
sgRNA knockout: sgSLC35F2, 10000 nM	92.6
sgRNA knockout: sgXBP1, 10 nM	85.7
sgRNA knockout: sgXBP1, 100 nM	83.1
sgRNA knockout: sgXBP1, 1000 nM	89.3
sgRNA knockout: sgXBP1, 10000 nM	91.4

Cc1ccc(F)c(NC(=O)Nc2ccc(-c3cccc4[nH]nc(N)c34)cc2)c1 [Linifanib]
Conditions	relative cell number
sgRNA knockout: sgATF3, 10 nM	93.7
sgRNA knockout: sgATF3, 100 nM	86.3
sgRNA knockout: sgATF3, 1000 nM	112
sgRNA knockout: sgATF3, 10000 nM	57.9
sgRNA knockout: sgATF4, 10 nM	101
sgRNA knockout: sgATF4, 100 nM	83.9
sgRNA knockout: sgATF4, 1000 nM	121
sgRNA knockout: sgATF4, 10000 nM	46.5
sgRNA knockout: sgATF6, 10 nM	91.2
sgRNA knockout: sgATF6, 100 nM	110
sgRNA knockout: sgATF6, 1000 nM	116
sgRNA knockout: sgATF6, 10000 nM	66
sgRNA knockout: sgATG7, 10 nM	101
sgRNA knockout: sgATG7, 100 nM	83.8
sgRNA knockout: sgATG7, 1000 nM	117
sgRNA knockout: sgATG7, 10000 nM	56.5
sgRNA knockout: sgERN1, 10 nM	95.8
sgRNA knockout: sgERN1, 100 nM	89.7
sgRNA knockout: sgERN1, 1000 nM	118
sgRNA knockout: sgERN1, 10000 nM	54.6
sgRNA knockout: sgHSF1, 10 nM	76.5
sgRNA knockout: sgHSF1, 100 nM	116
sgRNA knockout: sgHSF1, 1000 nM	125
sgRNA knockout: sgHSF1, 10000 nM	67.9
sgRNA knockout: sgHSF2, 10 nM	96.6
sgRNA knockout: sgHSF2, 100 nM	93.3
sgRNA knockout: sgHSF2, 1000 nM	118
sgRNA knockout: sgHSF2, 10000 nM	56.2
sgRNA knockout: sgKEAP1, 10 nM	102
sgRNA knockout: sgKEAP1, 100 nM	122
sgRNA knockout: sgKEAP1, 1000 nM	124
sgRNA knockout: sgKEAP1, 10000 nM	66.9
sgRNA knockout: sgNFE2L2, 10 nM	91.2
sgRNA knockout: sgNFE2L2, 100 nM	73.5
sgRNA knockout: sgNFE2L2, 1000 nM	118
sgRNA knockout: sgNFE2L2, 10000 nM	51.1
sgRNA knockout: sgSLC35F2, 10 nM	92.9
sgRNA knockout: sgSLC35F2, 100 nM	88.9
sgRNA knockout: sgSLC35F2, 1000 nM	117
sgRNA knockout: sgSLC35F2, 10000 nM	61.5
sgRNA knockout: sgXBP1, 10 nM	97.5
sgRNA knockout: sgXBP1, 100 nM	77.5
sgRNA knockout: sgXBP1, 1000 nM	120
sgRNA knockout: sgXBP1, 10000 nM	60.7
